PubChem BioAssay AID1259424 – University of Nebraska Medical Center, 2018

- Screen: 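Rank knockdowns across the genome by resemblance to the KSR1 depletion profile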 (primary screen)
- Cells: human HCT116 colon cancer cells
- Reagents: siRNA pool against human genes, 50 nM
- Read-out: 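Six signature mRNAs by branched-DNA multiplex assay, scaled to two housekeeping genes and non-targeting median, log2; matched to mean KSR1 knockdown profile by Pearson correlation and euclidean distance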
- Scale: mean correlation with KSR1 profile: higher = expression change more like KSR1 knockdown; mean distance from KSR1 profile: higher = expression change less like KSR1 knockdown
This is a random part of about 14,000 deposited reagents. 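Higher correlation or smaller distance means closer resemblance to KSR1 loss; control wells, including KSR1 knockdowns, recur on many plates.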 Further read-outs or replicates are left out here. The record does not give: the time to read-out.

{"gene":"TULP1 (GeneID 7287)","mean correlation with KSR1 profile":0.555,"mean distance from KSR1 profile":3.15}
{"gene":"AGBL2 (GeneID 79841)","mean correlation with KSR1 profile":0.609,"mean distance from KSR1 profile":1.6}
{"gene":"TSEN2 (GeneID 80746)","mean correlation with KSR1 profile":0.76,"mean distance from KSR1 profile":1.01}
{"gene":"URGCP (GeneID 55665)","mean correlation with KSR1 profile":-0.261,"mean distance from KSR1 profile":1.62}
{"gene":"GNE (GeneID 10020)","mean correlation with KSR1 profile":-0.156,"mean distance from KSR1 profile":2.31}
{"gene":"TTTY5 (GeneID 83863)","mean correlation with KSR1 profile":0.957,"mean distance from KSR1 profile":1.98}
{"gene":"CD58 (GeneID 965)","mean correlation with KSR1 profile":0.701,"mean distance from KSR1 profile":2.74}
{"gene":"TESK1 (GeneID 7016)","mean correlation with KSR1 profile":-0.286,"mean distance from KSR1 profile":1.96}
{"gene":"TRAPPC8 (GeneID 22878)","mean correlation with KSR1 profile":0.496,"mean distance from KSR1 profile":1.15}
{"gene":"HIBADH (GeneID 11112)","mean correlation with KSR1 profile":-0.085,"mean distance from KSR1 profile":5.4}
{"gene":"SCN11A (GeneID 11280)","mean correlation with KSR1 profile":-0.5,"mean distance from KSR1 profile":2.81}
{"gene":"FMN2 (GeneID 56776)","mean correlation with KSR1 profile":-0.584,"mean distance from KSR1 profile":1.96}
{"gene":"LPAR2 (GeneID 9170)","mean correlation with KSR1 profile":0.775,"mean distance from KSR1 profile":1.43}
{"gene":"MMP12 (GeneID 4321)","mean correlation with KSR1 profile":-0.276,"mean distance from KSR1 profile":3.13}
{"gene":"OLIG3 (GeneID 167826)","mean correlation with KSR1 profile":-0.17,"mean distance from KSR1 profile":2.07}
{"gene":"MSN (GeneID 4478)","mean correlation with KSR1 profile":-0.596,"mean distance from KSR1 profile":2.05}
{"gene":"SYNE1 (GeneID 23345)","mean correlation with KSR1 profile":-0.0844,"mean distance from KSR1 profile":2.77}
{"gene":"RSPH3 (GeneID 83861)","mean correlation with KSR1 profile":0.429,"mean distance from KSR1 profile":1.95}
{"gene":"FBXL5 (GeneID 26234)","mean correlation with KSR1 profile":-0.164,"mean distance from KSR1 profile":2.04}

Laid out differently: results already given.
TESK1 (GeneID 7016): mean correlation with KSR1 profile = -0.286; mean distance from KSR1 profile = 1.96
TRAPPC8 (GeneID 22878): mean correlation with KSR1 profile = 0.496; mean distance from KSR1 profile = 1.15
